Reference: the supplement of paper PMC10849652
The list shows a part of the results.

Chains of the proteins cited; added tags and fusions are not shown. Lines headed by an entry give the natural chain unless they say otherwise; changes in a name come on top.
UniProt Q96F07, whole entry, looked up: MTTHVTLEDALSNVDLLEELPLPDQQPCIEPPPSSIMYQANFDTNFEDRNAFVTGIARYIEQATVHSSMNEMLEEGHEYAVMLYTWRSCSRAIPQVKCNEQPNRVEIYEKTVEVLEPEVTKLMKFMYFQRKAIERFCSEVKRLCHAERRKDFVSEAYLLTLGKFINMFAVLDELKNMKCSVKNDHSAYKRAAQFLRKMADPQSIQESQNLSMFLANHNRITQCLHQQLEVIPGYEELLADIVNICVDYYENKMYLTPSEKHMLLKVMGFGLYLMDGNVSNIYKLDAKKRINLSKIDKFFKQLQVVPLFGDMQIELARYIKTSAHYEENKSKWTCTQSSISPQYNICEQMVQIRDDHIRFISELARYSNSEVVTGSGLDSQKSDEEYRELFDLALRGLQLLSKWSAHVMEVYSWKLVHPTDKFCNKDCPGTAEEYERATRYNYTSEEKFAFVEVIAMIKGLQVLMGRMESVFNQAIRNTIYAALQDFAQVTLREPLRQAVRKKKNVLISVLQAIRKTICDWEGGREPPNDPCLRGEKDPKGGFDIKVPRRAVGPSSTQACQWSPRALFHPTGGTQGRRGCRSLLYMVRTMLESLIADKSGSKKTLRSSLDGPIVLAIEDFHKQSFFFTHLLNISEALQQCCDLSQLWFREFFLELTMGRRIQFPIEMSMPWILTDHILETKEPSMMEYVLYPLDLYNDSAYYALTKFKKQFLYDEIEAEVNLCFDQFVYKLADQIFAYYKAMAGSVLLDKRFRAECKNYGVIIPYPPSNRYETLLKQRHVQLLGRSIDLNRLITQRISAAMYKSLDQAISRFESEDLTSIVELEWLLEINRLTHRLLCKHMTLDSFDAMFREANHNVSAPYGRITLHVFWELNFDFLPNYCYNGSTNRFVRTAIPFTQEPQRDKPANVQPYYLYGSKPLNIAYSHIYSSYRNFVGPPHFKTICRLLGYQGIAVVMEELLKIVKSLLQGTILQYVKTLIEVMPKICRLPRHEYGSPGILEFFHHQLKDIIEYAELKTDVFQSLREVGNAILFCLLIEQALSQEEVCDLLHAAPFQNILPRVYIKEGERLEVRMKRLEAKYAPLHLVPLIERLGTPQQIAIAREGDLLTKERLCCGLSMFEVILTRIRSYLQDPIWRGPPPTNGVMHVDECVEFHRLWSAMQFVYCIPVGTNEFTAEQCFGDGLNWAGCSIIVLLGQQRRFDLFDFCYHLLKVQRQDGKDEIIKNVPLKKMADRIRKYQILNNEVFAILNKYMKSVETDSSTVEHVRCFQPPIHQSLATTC
UniProt Q9NRF8: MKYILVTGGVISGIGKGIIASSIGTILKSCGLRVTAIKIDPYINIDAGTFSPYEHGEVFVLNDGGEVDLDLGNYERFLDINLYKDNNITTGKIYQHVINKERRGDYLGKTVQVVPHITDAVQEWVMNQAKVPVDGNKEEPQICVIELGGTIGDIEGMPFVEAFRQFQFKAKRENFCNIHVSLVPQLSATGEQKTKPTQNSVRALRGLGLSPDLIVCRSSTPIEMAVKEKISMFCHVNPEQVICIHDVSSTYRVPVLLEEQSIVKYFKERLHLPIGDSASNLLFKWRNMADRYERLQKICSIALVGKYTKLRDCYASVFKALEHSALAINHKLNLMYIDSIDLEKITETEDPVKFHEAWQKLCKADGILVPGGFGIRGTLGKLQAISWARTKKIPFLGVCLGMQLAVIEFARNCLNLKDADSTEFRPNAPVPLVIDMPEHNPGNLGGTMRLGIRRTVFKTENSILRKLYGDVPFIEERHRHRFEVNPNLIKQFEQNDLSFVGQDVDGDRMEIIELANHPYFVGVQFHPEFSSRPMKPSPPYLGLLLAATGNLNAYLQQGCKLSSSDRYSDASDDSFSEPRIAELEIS
UniProt P02511: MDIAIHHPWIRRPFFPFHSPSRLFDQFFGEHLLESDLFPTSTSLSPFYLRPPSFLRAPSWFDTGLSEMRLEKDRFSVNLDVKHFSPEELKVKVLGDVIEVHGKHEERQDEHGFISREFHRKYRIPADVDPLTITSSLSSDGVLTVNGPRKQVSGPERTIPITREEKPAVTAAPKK
UniProt P09668: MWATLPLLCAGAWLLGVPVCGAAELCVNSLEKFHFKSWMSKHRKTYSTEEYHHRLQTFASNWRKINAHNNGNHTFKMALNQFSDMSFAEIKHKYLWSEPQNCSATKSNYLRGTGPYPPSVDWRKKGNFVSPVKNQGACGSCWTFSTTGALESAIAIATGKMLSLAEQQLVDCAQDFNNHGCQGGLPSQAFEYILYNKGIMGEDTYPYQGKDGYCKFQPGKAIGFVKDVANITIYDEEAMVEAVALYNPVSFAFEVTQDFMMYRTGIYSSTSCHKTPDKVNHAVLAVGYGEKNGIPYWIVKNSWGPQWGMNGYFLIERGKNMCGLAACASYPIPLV
UniProt Q13618, whole entry, looked up: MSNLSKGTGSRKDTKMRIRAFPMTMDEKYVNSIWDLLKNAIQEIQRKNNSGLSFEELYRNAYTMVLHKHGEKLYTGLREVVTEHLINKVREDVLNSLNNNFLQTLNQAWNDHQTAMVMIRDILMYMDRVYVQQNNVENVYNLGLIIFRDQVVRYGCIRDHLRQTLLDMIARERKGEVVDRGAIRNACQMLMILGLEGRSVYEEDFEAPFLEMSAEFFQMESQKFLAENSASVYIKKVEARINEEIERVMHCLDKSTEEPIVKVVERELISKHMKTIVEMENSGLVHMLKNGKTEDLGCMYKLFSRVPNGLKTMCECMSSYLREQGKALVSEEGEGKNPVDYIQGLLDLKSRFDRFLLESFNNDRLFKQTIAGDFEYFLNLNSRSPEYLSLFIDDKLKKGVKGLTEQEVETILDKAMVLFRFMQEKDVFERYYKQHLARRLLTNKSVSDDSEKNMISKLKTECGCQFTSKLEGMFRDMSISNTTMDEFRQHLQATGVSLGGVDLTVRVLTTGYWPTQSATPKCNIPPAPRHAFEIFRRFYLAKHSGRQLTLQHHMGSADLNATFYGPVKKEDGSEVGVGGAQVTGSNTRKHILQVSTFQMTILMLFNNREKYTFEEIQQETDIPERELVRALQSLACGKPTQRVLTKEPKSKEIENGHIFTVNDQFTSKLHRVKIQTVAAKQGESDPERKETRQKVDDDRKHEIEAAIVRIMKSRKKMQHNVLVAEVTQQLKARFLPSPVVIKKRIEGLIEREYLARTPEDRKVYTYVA
UniProt P49674: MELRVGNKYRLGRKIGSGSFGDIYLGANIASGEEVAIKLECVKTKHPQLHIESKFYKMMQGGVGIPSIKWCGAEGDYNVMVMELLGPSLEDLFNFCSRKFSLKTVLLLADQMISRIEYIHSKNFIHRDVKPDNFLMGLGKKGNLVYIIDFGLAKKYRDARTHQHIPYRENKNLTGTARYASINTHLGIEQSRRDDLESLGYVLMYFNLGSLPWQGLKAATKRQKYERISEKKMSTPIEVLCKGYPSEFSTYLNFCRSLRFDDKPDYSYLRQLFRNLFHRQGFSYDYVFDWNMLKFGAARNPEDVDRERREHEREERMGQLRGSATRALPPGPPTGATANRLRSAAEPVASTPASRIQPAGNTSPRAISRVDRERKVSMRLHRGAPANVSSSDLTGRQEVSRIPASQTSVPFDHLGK
UniProt Q8WYA6: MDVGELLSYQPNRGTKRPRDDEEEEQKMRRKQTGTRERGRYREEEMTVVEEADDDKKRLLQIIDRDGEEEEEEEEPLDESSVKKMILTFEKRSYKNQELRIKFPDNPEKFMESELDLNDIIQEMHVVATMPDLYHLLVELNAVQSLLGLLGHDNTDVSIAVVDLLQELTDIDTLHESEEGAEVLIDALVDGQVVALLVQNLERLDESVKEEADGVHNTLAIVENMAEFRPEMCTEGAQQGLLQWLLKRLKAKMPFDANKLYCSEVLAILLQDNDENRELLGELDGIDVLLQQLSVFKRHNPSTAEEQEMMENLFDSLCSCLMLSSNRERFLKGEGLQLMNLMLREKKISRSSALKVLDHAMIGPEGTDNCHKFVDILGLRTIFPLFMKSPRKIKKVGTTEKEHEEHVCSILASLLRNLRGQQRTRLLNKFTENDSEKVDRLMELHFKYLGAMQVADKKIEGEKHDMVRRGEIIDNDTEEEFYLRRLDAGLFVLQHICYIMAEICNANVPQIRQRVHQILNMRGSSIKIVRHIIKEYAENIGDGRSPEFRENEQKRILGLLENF
UniProt P07711: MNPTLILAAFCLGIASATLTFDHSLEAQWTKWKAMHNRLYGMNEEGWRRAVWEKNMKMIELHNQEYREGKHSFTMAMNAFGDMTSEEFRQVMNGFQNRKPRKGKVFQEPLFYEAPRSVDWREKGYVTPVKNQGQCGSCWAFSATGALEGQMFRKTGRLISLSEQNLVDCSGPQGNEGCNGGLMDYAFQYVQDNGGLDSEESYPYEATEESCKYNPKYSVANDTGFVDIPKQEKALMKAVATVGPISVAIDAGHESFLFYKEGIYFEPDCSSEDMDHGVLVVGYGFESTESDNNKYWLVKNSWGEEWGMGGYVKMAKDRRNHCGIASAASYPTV
UniProt O43310: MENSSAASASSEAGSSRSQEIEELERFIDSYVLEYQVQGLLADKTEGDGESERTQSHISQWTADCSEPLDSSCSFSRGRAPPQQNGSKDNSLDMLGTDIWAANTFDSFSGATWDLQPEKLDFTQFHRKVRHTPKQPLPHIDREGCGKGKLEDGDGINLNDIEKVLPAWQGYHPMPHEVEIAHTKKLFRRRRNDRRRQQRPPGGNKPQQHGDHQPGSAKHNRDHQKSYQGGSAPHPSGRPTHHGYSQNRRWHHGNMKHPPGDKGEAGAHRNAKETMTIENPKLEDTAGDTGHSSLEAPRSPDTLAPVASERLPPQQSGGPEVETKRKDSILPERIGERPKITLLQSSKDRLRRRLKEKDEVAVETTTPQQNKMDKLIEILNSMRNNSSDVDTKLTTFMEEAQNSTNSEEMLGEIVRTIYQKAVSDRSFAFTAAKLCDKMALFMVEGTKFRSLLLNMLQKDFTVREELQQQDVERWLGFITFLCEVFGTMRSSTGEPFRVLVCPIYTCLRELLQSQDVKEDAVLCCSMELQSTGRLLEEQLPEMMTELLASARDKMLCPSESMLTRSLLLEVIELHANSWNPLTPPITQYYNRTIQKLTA
UniProt P46108: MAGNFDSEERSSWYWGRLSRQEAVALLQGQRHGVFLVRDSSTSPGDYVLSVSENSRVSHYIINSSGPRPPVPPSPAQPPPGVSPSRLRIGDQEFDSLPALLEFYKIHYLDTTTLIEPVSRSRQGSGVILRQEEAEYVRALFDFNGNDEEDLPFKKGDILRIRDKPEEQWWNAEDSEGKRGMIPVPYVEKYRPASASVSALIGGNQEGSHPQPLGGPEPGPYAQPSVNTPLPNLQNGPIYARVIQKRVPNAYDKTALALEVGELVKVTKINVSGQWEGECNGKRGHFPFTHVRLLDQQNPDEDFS
UniProt Q7L1T6: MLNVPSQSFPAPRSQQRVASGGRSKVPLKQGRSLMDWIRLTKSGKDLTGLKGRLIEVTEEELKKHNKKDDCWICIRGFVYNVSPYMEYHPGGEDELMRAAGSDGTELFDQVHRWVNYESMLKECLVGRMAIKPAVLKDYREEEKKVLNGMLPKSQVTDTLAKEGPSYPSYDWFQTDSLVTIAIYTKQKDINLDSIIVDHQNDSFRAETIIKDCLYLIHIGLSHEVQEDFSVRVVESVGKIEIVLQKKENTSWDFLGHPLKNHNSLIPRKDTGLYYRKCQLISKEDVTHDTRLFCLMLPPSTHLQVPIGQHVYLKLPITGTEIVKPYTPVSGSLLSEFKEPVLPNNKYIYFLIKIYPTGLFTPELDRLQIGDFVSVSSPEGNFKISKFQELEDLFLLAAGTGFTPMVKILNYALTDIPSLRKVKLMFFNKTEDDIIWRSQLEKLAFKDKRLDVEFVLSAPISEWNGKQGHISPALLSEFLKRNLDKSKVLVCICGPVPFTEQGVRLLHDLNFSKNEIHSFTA
UniProt P0C2W7: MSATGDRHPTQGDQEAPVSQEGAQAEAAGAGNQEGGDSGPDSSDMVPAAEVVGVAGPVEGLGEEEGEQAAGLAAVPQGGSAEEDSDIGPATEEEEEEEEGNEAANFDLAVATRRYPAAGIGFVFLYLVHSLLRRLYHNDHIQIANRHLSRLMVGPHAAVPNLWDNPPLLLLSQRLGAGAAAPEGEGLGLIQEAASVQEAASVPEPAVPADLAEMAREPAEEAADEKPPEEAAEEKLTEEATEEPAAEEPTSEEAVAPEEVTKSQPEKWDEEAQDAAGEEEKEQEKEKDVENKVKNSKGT
UniProt P21291: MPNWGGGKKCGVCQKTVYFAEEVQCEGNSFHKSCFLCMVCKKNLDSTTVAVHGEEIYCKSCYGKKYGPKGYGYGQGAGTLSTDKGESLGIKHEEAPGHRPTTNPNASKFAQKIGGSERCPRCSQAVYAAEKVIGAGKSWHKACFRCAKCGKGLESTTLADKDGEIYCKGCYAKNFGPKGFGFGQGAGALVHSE

Tests used:
Assay in all cases: log2 fold change, soluble protein after heating vs DMSO (PISA); higher = thermal stabilisation; K562 lysate, 10 uM; active = over 0.2 and 3.5 SD of the protein, either way, in both replicates (recomputed)
erlotinib = compound: C#Cc1cccc(Nc2ncnc3cc(OCCOC)c(OCCOC)cc23)c1 [erlotinib]
In short: (§1)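 Following dounce homogenisation of K562 pellets in PBS pH 7.4 with 1 mM MgCl2, crude extract at 1 mg/mL protein was incubated for 30 min with 10 μM compound. Aliquots were then heated for 3 min over 48°C-58°C and pooled, NP-40 was added to 0.5% at 4°C, and soluble protein was recovered as the supernatant at 21,000xg for 90 min. Channel-sum-equalised TMTpro 16plex LC-MS/MS quantified this protein. Each value, from duplicates, is a log-two fold change in thermal stability relative to solvent controls.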

[1] = compound: C/C(=N\NC(=O)C1=CC(=CC=C1)S(=O)(=O)N2CCOCC2)/C3=C(C=CC(=C3)Cl)O
In short: as §1

[2] = compound: C1=CC(=CC=C1C2=NC3=C(N2)C=C(C=C3)C(=O)N)OC4=CC=C(C=C4)Cl
In short: as §1

[3] = compound: C1=CC2=C(C=CC(=C2)/C=C\3/C(=O)NC(=NCC4=CC=CS4)S3)N=C1
In short: as §1

[4] = compound: C1=CC2=NC=CN=C2C=C1/C=C/3\C(=O)NC(=O)S3
In short: as §1

[5] = compound: C1=CC=C(C=C1)C2=NC(=C(N2)C3=CC=NC=C3)C4=CC(=C(C=C4)Cl)O
In short: as §1

[6] = compound: C1=CC=C2C(=C1)C3=NNC4=CC=CC(=C43)C2=O
In short: as §1

[7] = compound: C1CCN(C1)C(=O)NC2=CC=CC(=C2)NC3=NC=C(C(=N3)NCCC4=CN=CN4)Br
In short: as §1

[8] = compound: C1CN(CCC1(CC2=CC=C(C=C2)Cl)N)C3=NC=NC4=C3C=CN4
In short: as §1

IRAK-1-4 Inhibitor I = compound: C1COCCN1CCN2C3=CC=CC=C3N=C2NC(=O)C4=CC(=CC=C4)[N+](=O)[O-] [IRAK-1-4 Inhibitor I]
In short: as §1

ibrutinib = compound: C=CC(=O)N1CCC[C@@H](n2nc(-c3ccc(Oc4ccccc4)cc3)c3c(N)ncnc32)C1 [ibrutinib]
In short: as §1

[9] = compound: CC(=O)c1cnc2ccc(-c3cc(Cl)c(O)c(Cl)c3)nc2c1N[C@H]1CC[C@H](CN(C)C)CC1
In short: as §1

ralimetinib = compound: CC(C)(C)Cn1c(N)nc2ccc(-c3[nH]c(C(C)(C)C)nc3-c3ccc(F)cc3)nc21 [ralimetinib]
In short: as §1

[10] = compound: CC(C)(O)CC(=O)NCCn1ccc2ncnc(Nc3ccc(Oc4cccc(C(F)(F)F)c4)c(Cl)c3)c21
In short: as §1

[11] = compound: CC(C)C1=C2N=C(C=C(N2N=C1)NCC3=CC=CC=C3)NCCCCCCN
In short: as §1

[12] = compound: CC1=C(C(CC(=O)N1)C2=CC=C(C=C2)C(F)(F)F)C(=O)NC3=C(C=C4C(=C3)C=NN4)F
In short: as §1

[13] = compound: CC1=C(C2=C(C=C1)C(=O)C3=CC=CC=C3N2CCCN)C
In short: as §1

[14] = compound: CC1=C(C=C(C=C1)NC(=O)C2=CC(=CC=C2)C(C)(C)C#N)NC3=CC4=C(C=C3)N=CN(C4=O)C
In short: as §1

[15] = compound: CC1=C(C=C(C=C1)NC(=O)C2=CC(=CC=C2)N(C)C)NC(=O)C3=CC=C(C=C3)O
In short: as §1

[16] = compound: CC1=CC=C(C=C1)SC2=C3C=C(SC3=CN=C2)C(=O)N
In short: as §1

Row | Target | log2 fold change (erlotinib) | log2 fold change [1] | log2 fold change [2] | log2 fold change [3] | log2 fold change [4] | log2 fold change [5] | log2 fold change [6] | log2 fold change [7] | log2 fold change [8] | log2 fold change (IRAK-1-4 Inhibitor I) | log2 fold change (ibrutinib) | log2 fold change [9] | log2 fold change (ralimetinib) | log2 fold change [10] | log2 fold change [11] | log2 fold change [12] | log2 fold change [13] | log2 fold change [14] | log2 fold change [15] | log2 fold change [16]
1 | CRYZL1 (UniProt O95825) | inactive: -0.043 | inactive: -0.005 | inactive: 0.011 | inactive: -0.016 | inactive: -0.008 | inactive: 0.023 | inactive: 0.007 | inactive: -0.024 | inactive: 0.013 | inactive: 0.033 | inactive: -0.01 | inactive: -0.004 | inactive: 0.007 | inactive: -0.058 | inactive: -0.023 | inactive: -0.042 | inactive: 0 | inactive: 0.022 | inactive: 0.018 | inactive: -0.019
2 | CYFIP2 (UniProt Q96F07) | inactive: -0.005 | inactive: 0.142 | inactive: 0.026 | inactive: 0.037 | inactive: -0.001 | inactive: 0.022 | inactive: -0.002 | inactive: -0.027 | inactive: 0.008 | inactive: 0.007 | inactive: 0 | inactive: -0.013 | inactive: 0.026 | inactive: -0.006 | inactive: -0.008 | inactive: -0.005 | inactive: 0.012 | inactive: -0.013 | inactive: -0.005 | inactive: -0.003
3 | CTPS2 (UniProt Q9NRF8) | inactive: -0.009 | inactive: -0.008 | inactive: -0.016 | inactive: -0.01 | inactive: 0.01 | inactive: -0.008 | inactive: 0 | inactive: -0.021 | inactive: -0.015 | inactive: -0.006 | inactive: 0.021 | inactive: 0.006 | inactive: 0.017 | inactive: -0.026 | inactive: -0.011 | inactive: 0.008 | inactive: -0.004 | inactive: 0.009 | inactive: 0.005 | inactive: -0.009
4 | CRYAB (UniProt P02511) | inactive: 0.034 | inactive: 0.018 | inactive: 0.028 | inactive: 0.014 | inactive: 0.032 | inactive: 0.094 | inactive: 0.048 | inactive: -0.088 | inactive: 0.102 | inactive: 0.114 | inactive: -0.084 | inactive: 0.029 | inactive: -0.103 | inactive: -0.258 | inactive: 0.114 | inactive: -0.089 | inactive: -0.217 | inactive: 0.077 | inactive: 0.032 | inactive: -0.06
5 | CTSH (UniProt P09668) | inactive: 0.039 | inactive: 0.004 | inactive: 0.038 | inactive: 0 | inactive: -0.004 | inactive: 0.019 | inactive: 0.007 | inactive: 0.018 | inactive: 0.044 | inactive: -0.04 | inactive: 0.044 | inactive: -0.004 | inactive: -0.037 | inactive: -0.09 | inactive: -0.007 | inactive: 0.008 | inactive: 0.015 | inactive: -0.028 | inactive: 0.006 | inactive: -0.004
6 | CXorf56 (UniProt Q9H5V9) | inactive: -0.004 | inactive: 0.033 | inactive: 0.026 | inactive: -0.037 | inactive: -0.048 | inactive: 0.034 | inactive: -0.004 | inactive: -0.02 | inactive: 0.01 | inactive: 0.025 | inactive: 0.002 | inactive: -0.024 | inactive: 0.012 | inactive: 0.003 | inactive: 0.007 | inactive: 0.026 | inactive: -0.054 | inactive: 0.014 | inactive: -0.005 | inactive: 0.008
7 | CUL3 (UniProt Q13618) | inactive: 0.018 | inactive: -0.002 | inactive: -0.009 | inactive: -0.018 | inactive: 0.006 | inactive: -0.003 | inactive: 0.006 | inactive: 0.002 | inactive: 0.016 | inactive: 0.02 | inactive: -0.004 | inactive: -0.006 | inactive: -0.003 | inactive: -0.023 | inactive: -0.036 | inactive: -0.011 | inactive: 0.012 | inactive: 0 | inactive: -0.025 | inactive: 0.003
8 | CSNK1E (UniProt P49674) | inactive: -0.003 | inactive: 0.006 | inactive: 0.161 | inactive: 0.047 | inactive: 0.018 | active: 0.297 | active: 0.345 | inactive: -0.056 | inactive: 0.009 | inactive: -0.032 | inactive: 0.029 | inactive: 0.287 | inactive: 0.208 | inactive: -0.026 | inactive: -0.04 | inactive: -0.012 | inactive: -0.064 | inactive: -0.049 | inactive: -0.028 | inactive: -0.039
9 | CTNNBL1 (UniProt Q8WYA6) | inactive: 0.023 | inactive: 0.052 | inactive: 0.023 | inactive: 0.018 | inactive: 0.015 | inactive: 0.103 | inactive: -0.033 | inactive: -0.042 | inactive: -0.033 | inactive: 0.088 | inactive: 0 | inactive: 0.047 | inactive: -0.095 | inactive: -0.169 | inactive: 0.017 | inactive: -0.051 | inactive: -0.04 | inactive: 0.015 | inactive: 0.056 | inactive: 0.01
10 | CTSL (UniProt P07711) | inactive: 0.004 | inactive: 0.059 | inactive: 0.012 | inactive: -0.017 | inactive: -0.007 | inactive: 0 | inactive: 0.007 | inactive: -0.023 | inactive: -0.026 | inactive: 0.021 | inactive: 0.044 | inactive: 0.005 | inactive: -0.015 | inactive: 0.01 | inactive: 0.013 | inactive: -0.035 | inactive: 0.005 | inactive: -0.004 | inactive: -0.065 | inactive: 0.011
11 | CTIF isoform 2 (UniProt O43310) | inactive: 0.01 | inactive: -0.022 | inactive: -0.031 | inactive: -0.012 | inactive: 0 | inactive: 0.007 | inactive: 0.001 | inactive: -0.096 | inactive: 0.039 | inactive: 0.022 | inactive: 0.007 | inactive: 0.037 | inactive: -0.004 | inactive: -0.026 | inactive: -0.022 | inactive: 0.038 | inactive: -0.05 | inactive: -0.012 | inactive: 0.032 | inactive: -0.014
12 | CRK (UniProt P46108) | inactive: 0.01 | inactive: -0.016 | inactive: 0.024 | inactive: 0.003 | inactive: 0.001 | inactive: 0.007 | inactive: -0.002 | inactive: 0.001 | inactive: 0.012 | inactive: -0.009 | inactive: -0.009 | inactive: -0.012 | inactive: 0.01 | inactive: -0.041 | inactive: 0.018 | inactive: -0.008 | inactive: -0.011 | inactive: 0.035 | inactive: 0.015 | inactive: -0.021
13 | CYB5R4 (UniProt Q7L1T6) | inactive: 0.05 | inactive: -0.031 | inactive: 0.069 | inactive: 0.018 | inactive: 0 | inactive: 0.048 | inactive: 0 | inactive: -0.016 | inactive: -0.034 | inactive: 0.001 | inactive: -0.018 | inactive: 0.035 | inactive: 0.033 | inactive: -0.075 | inactive: 0.094 | inactive: -0.064 | inactive: 0.009 | inactive: 0.007 | inactive: 0.029 | inactive: -0.053
14 | CT47B1 (UniProt P0C2W7) | inactive: 0.128 | inactive: -0.1 | inactive: 0.066 | inactive: 0.113 | inactive: -0.301 | inactive: 0.002 | inactive: -0.221 | inactive: -0.022 | inactive: 0.031 | inactive: -0.037 | inactive: 0.009 | inactive: -0.034 | inactive: -0.097 | inactive: -0.072 | inactive: 0.003 | inactive: -0.075 | inactive: 0.003 | inactive: 0.111 | inactive: 0.088 | inactive: -0.119
15 | CSRP1 (UniProt P21291) | inactive: 0.004 | inactive: -0.039 | inactive: 0.014 | inactive: -0.013 | inactive: 0.008 | inactive: 0.017 | inactive: 0.015 | inactive: 0.023 | inactive: -0.014 | inactive: 0.009 | inactive: -0.01 | inactive: -0.023 | inactive: 0.001 | inactive: -0.002 | inactive: -0.051 | inactive: -0.045 | inactive: -0.023 | inactive: 0.056 | inactive: -0.017 | inactive: -0.026
